The values are deposited in ChEMBL (CHEMBL3988442, “University of Dundee, Small-Polar-MMV Screening Library” (2021)).

Mtb glucose medium: 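Growth of Mycobacterium tuberculosis over 3 days (7H9 medium with glucose and tyloxapol); the read-out is not stated. Compounds at 500 µM. Direction is inferred from retests: higher values go with more growth inhibition. About 18,000 compounds were tested under these conditions; 7.9% (about 1,400) showed 50% or more at least once.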
Mtb cholesterol medium: 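Whole-cell growth test on Mycobacterium tuberculosis, read after 4 days in a medium based on cholesterol and the lipid DPPC; the read-out is not stated. Tested at 500 µM. The record gives no direction; compounds that gave an IC50 in retests scored well above the rest, so higher reads as more growth inhibition. Size under these conditions: about 18,000 compounds, about 900 of them at 50% or above in at least one test.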

The filed quantity is “Percent Effect” (%).
The controls that fix the scale are not given in the record; negative values are as filed.
This is an unselected part of the compounds tested.

| structure | Mtb glucose medium | Mtb cholesterol medium |
|---|---|---|
| `CN1CCC(n2c(=O)[nH]c3ccccc3c2=O)CC1` | 1.071% | 4.865% |
| `COc1cccc(-c2cnn(CCC(N)=O)c2)c1F` | 46.59% | 64.19% |
| `CC(C)c1nc(CN2Cc3cnn(CCO)c3C2)co1` | -23.12% | -40.18% |
| `NCC1CCN(c2ccncc2)CC1` | 13.78% | -2.087% |
| `CC(CCc1cccc(F)c1)N1CCNC(=O)CC1` (centres unmarked) | 17.58% | 10.37% |
| `O=C1CCN(CC(=O)c2ccccc2F)CCN1` | -7.609% | -21.97% |
| `CN1c2ccccc2NS1(=O)=O` | 12.06% | 5.358% |
| `CN(CCn1cccn1)c1ncccc1S(N)(=O)=O` | 4.563% | -46.5% |
| `O=C(Nc1ccc2[nH]nnc2c1)C1=CCCCO1` | 36.61% | 32.65% |
| `N[C@@H]1C[C@@H]2CC[C@H]1O2` | 5.032% | 2.644% |
| `CC(C(=O)N1CC[C@H](O)C1)c1ccsc1` (some centres unmarked) | 10.58% | -4.212% |
| `CNCC(C)CNC(=O)CCc1cccc(F)c1` (centres unmarked) | 12.51% | 4.668% |
| `Cc1cc(CNc2ncnc3c2cnn3C)on1` | 27.49% | -15.08% |
| `Cc1ccc(C(=O)Nc2cnn(C)c2)cn1` | 6.087% | 62.06% |
| `CN(C)CCNC(=O)[C@@H](N)Cc1ccccc1` | 23.15% | 11.14% |
| `NS(=O)(=O)c1ccc(F)c(C(=O)NCc2ccon2)c1` | -13.2% | -9.014% |
| `Cc1cccc(CS(=O)(=O)NCC2(CO)CC2)c1` | -4.39% | -11.69% |
| `O=C(Cn1ccnc1)Nc1ccc(OC(F)F)cc1` | 24.17% | 14.95% |
| `Nc1nccnc1C(=O)Nc1cccc2cccnc12` | -7.141% | -4.661% |
| `O=C1COc2c(Cl)cccc21` | -30.08% | -36.74% |
| `CNC(=O)c1ccc(C)c(F)c1` | 2.738% | -19.98% |
| `CN(C)[C@H]1CCCCN(C(=O)Cn2cc(Cl)cn2)C1` | -6.323% | -5.15% |
| `COc1cccc(S(=O)(=O)CCN(C)CCO)c1` | 96.44% | 96.74% |
| `NC1(CO)CCOc2ccccc21` (centres unmarked) | 4.726% | 0.4766% |
| `Cc1ccc(CN(CCCC(=O)NC(N)=O)C2CC2)o1` | -23.36% | -18.53% |
| `COc1cccnc1NCc1cc(C(N)=O)cs1` | 24.07% | 8.457% |
| `CN1CCN(CCCNC(=O)c2ccco2)CC1` | -7.879% | -11.42% |
| `COC(C(=O)N1CCCN(c2nccs2)CC1)C1CC1` (centres unmarked) | 15.99% | -10.33% |
| `Cc1ccc(NC(=O)CN(C)CC(=O)N(C)C)cc1C` | 40.34% | 19.24% |
| `CN(C)c1nc(N)nc(COC(=O)C2CCCO2)n1` (centres unmarked) | -0.485% | -4.75% |
| `CN(CC(=O)NCC1CCCO1)CC1CC1` (centres unmarked) | 31.99% | 29% |
| `COCCn1cc(CNC(=O)NCC(F)F)cn1` | 6.122% | 9.269% |
| `Cn1c(CN2CCN(CCO)CC2)cc(=O)n(C)c1=O` | -6.675% | -8.366% |
| `CCC[C@H]1CN(c2nc(C)ccc2C(=O)O)C[C@@H]1N` | 4.179% | -4.985% |
| `CC1=NOC(CNC(=O)c2ccccc2F)C1` (centres unmarked) | 10.86% | -6.727% |
| `CCN(C)S(=O)(=O)NCC1(O)CCCc2ccccc21` (centres unmarked) | 35.97% | 22.75% |
| `CN(C1CCCCC1)S(=O)(=O)N1CCNC(=O)C1` | 22.27% | -10.96% |
| `CC(C)(C)OC(=O)N1CCN(c2ccnc(N)c2)CC1` | 59.42% | 36.02% |
| `CS(=O)(=O)NCCNCc1cnc(-c2ccccc2)s1` | -7.101% | -7.816% |
| `CSC(C)C(=O)NCc1ccnc(N2CCOCC2)c1` (centres unmarked) | 21.04% | -0.2675% |
| `CCc1noc(C)c1C(=O)NCC1CCCO1` (centres unmarked) | 12.1% | 14.95% |
| `CNC(=O)c1cc(S(=O)(=O)Nc2ccccn2)cs1` | -6.158% | -4.653% |
| `CC(NC(=O)Cc1cccnc1)c1cn2ccsc2n1` (centres unmarked) | 30.37% | 9.606% |
| `CSCCC(=O)NCc1ccc2nonc2c1` | 25.83% | -0.7784% |
| `CC(C)=CCN1CCN(S(=O)(=O)CCOC(C)C)CC1` | 37.3% | 32.12% |
| `Cc1ccc(CC(=O)N2CCC[C@H]2CO)cc1O` | 17.75% | -5.117% |
| `CC(=O)N1CCN(Cc2cc(=O)n(C)c(=O)n2C)CC1` | -1.166% | 0.06244% |
| `O=C(NC1CCCNC1)c1cc2ccccc2o1` (centres unmarked) | 32.27% | 17.14% |
| `CN1CCN(C(=O)c2cc3c(F)cccc3s2)CC1` | 62.74% | 35.23% |
| `CCc1ccc(CNC(=O)N2CCC(C(N)=O)CC2)s1` | 4.54% | 9.539% |
| `CC(C)N(CCCNC(=O)Cc1cccs1)S(C)(=O)=O` | 18.38% | 12.92% |
| `CC(O)C(=O)N1C[C@H]2CN(C(=O)OC(C)(C)C)C[C@H]2C1` (some centres unmarked) | 18.31% | 5.444% |
| `COc1ccc2c(c1)CCN2C(=O)[C@@H](N)CC(C)C` | 6.383% | 4.562% |
| `Cc1ccc(C(=O)N2CCN(C)CC2C)c(C)c1` (centres unmarked) | 25.77% | -0.9751% |
| `COCCN(CC(=O)N(C)C)c1ncccn1` | -5.037% | -4.405% |
| `CCc1nc(CN(C)C(=O)c2cc(CO)ccn2)no1` | 11.99% | -0.2854% |
| `CC(C)NS(=O)(=O)N1CCNCC1` | -4.546% | -4.046% |
| `NC(=O)C1CCN(C(=O)C2CCNCC2)CC1` | -1.119% | -10.81% |
| `CN(C)S(=O)(=O)N(CCO)CC(C)(C)C` | 18.39% | 3.103% |
| `CCN1CCC(NC(=O)C2CC2)CC1` | 8.232% | 13.02% |
| `CN(CC(=O)NC1CCS(=O)(=O)C1)c1ccc(F)cc1` (centres unmarked) | -0.2826% | -10.54% |
| `CC(C)Oc1ccccc1OCCN1CC(O)C1` | 6.708% | 3.816% |
| `CN(CCN)C(C1CC1)C1CC1` | 11.6% | 3.86% |
| `Nc1ccc(-c2ccc(CN3CCCCC3)cn2)cn1` | 10.2% | -3.288% |
| `CCn1nc(-c2ccc(F)cc2)oc1=O` | -8.999% | -25.6% |
| `COCC(N)CC1CCOCC1` (centres unmarked) | 2.852% | 1.836% |
| `Cc1c(C(=O)Nc2ccc3c(c2)OCCO3)cnn1C` | 42.06% | 57.49% |
| `CCCOCC(=O)N1C[C@@H](CN(C)C)[C@@H](CO)C1` | -0.1457% | -9.396% |
| `Cc1cncc(CN)c1` | 3.021% | -7.047% |
| `NC(=O)C1(NC(=O)Cc2ccc3ccccc3c2)CC1` | -7.843% | -7.588% |
| `CCN(CC)c1ccc(CNc2nc[nH]n2)cc1` | -7.571% | -13.81% |
| `CC(C)CC(C)(CN)NS(=O)(=O)c1cccnc1` (centres unmarked) | 2.888% | 12.61% |
| `Cc1nc(CN2[C@@H]3CC[C@H]2CNC(=O)C3)c[nH]1` | 5.542% | 4.825% |
| `CCc1nsc(N2CC(CO)C2)n1` | 14.42% | 1.727% |
| `COCCN(CCN)C(=O)OC(C)(C)C` | 12.23% | -0.5561% |
| `CCn1cc(Cl)c(CN)n1` | 15.7% | 25.81% |
| `Cc1nc(CN2CCCC(N)C2)cs1` (centres unmarked) | 7.941% | 10.75% |
| `CCc1nccn1CCNC(=O)C(C)NC(=O)OC` (centres unmarked) | -0.477% | 1.41% |
| `OCC1CN(Cc2ccc(Br)c3cccnc23)CCO1` (centres unmarked) | 46.75% | -4.464% |
| `CSc1ncccc1C(=O)NC(C)c1nc(C)c[nH]1` (centres unmarked) | 4.882% | 2.671% |
| `COC(=O)C(C)n1cnc2sc3c(c2c1=O)CCC3` (centres unmarked) | -1.899% | 27.56% |
| `CN(C)C(CNC(=O)c1ccc(O)nc1)c1cccs1` (centres unmarked) | 11.76% | -9.281% |
| `O=C1NC(=O)[C@@H]2CN(Cc3ccccc3)C[C@H]12` | 3.408% | 8.721% |
| `CCNC(=O)c1ccnc(-c2ccccc2CO)c1` | 35.14% | 15.32% |